The text below walks through data of paper PMC8260731.

By UniProt entry, the sequences of proteins in these tests, tags left out.
UniProt Q01105: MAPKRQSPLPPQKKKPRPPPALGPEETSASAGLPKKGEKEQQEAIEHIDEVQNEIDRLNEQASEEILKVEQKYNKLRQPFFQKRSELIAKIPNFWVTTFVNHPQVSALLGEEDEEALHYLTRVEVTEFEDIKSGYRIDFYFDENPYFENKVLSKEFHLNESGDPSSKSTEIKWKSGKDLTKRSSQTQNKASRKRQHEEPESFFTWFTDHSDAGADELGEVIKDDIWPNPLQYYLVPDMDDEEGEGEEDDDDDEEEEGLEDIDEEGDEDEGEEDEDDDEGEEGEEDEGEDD

The target of one assay is T1, GST-SAP18 (human) (UniProt O00422).
T1 sequence: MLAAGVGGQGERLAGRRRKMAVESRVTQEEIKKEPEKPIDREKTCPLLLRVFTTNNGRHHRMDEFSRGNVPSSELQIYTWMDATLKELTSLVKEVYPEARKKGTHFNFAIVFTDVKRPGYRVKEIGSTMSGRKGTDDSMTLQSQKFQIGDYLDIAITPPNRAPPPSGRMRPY
Description: pull-down; GST fusion (2-3 ug) immobilized on glutathione-Sepharose beads, incubated with 150 ug of HEK 293 cell extract expressing the GFP fusion, 100 ul, 4 h at 4 °C; 50 mM Tris-HCl pH 7.4, 150 mM NaCl, 1% NP-40; western blot with anti-GFP; only the target purified. For orientation: Immunoblotting shows a protein as a band on a membrane.

For a further assay, the target named is GST-SET (UniProt Q01105). The description is as above.

These are yes or no findings as the source states them, for the method shown. Binding seen in cells or lysates may run through a third protein. Some results given as binding are weak or reduced against the parent protein; the word gives no strength. Where a sequence is shown, tags or fusion partners need not be part of it.

With GFP-SET (from UniProt Q01105 1-290), the binding entry with GST-SAP18 (human) is “binds”.

B1: GFP-SAP18 (protein, UniProt O00422 1-153)
chain: MAVESRVTQEEIKKEPEKPIDREKTCPLLLRVFTTNNGRHHRMDEFSRGNVPSSELQIYTWMDATLKELTSLVKEVYPEARKKGTHFNFAIVFTDVKRPGYRVKEIGSTMSGRKGTDDSMTLQSQKFQIGDYLDIAITPPNRAPPPSGRMRPY
Take B1: the binding result with GST-SET is “binds”.
